The other results are listed elsewhere or left out.

Protein sequences, listed by entry. Tags and fused reporters are not part of them. Lines headed by an entry give the natural chain unless they say otherwise; changes in a name come on top.
UniProt Q8TAA9: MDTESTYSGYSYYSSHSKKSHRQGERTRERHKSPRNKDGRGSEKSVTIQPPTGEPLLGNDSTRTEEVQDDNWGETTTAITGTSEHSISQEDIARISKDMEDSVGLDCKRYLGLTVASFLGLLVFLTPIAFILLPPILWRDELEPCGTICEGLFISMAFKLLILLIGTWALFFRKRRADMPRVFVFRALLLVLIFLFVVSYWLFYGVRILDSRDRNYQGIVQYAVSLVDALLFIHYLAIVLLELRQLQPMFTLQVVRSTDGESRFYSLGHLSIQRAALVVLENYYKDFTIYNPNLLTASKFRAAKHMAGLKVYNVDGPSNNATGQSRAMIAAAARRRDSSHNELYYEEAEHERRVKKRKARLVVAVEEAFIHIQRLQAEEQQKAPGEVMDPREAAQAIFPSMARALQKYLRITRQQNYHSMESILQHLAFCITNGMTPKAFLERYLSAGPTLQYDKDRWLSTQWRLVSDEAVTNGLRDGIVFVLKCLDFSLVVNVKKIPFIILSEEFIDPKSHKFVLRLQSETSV
UniProt Q8TCY9: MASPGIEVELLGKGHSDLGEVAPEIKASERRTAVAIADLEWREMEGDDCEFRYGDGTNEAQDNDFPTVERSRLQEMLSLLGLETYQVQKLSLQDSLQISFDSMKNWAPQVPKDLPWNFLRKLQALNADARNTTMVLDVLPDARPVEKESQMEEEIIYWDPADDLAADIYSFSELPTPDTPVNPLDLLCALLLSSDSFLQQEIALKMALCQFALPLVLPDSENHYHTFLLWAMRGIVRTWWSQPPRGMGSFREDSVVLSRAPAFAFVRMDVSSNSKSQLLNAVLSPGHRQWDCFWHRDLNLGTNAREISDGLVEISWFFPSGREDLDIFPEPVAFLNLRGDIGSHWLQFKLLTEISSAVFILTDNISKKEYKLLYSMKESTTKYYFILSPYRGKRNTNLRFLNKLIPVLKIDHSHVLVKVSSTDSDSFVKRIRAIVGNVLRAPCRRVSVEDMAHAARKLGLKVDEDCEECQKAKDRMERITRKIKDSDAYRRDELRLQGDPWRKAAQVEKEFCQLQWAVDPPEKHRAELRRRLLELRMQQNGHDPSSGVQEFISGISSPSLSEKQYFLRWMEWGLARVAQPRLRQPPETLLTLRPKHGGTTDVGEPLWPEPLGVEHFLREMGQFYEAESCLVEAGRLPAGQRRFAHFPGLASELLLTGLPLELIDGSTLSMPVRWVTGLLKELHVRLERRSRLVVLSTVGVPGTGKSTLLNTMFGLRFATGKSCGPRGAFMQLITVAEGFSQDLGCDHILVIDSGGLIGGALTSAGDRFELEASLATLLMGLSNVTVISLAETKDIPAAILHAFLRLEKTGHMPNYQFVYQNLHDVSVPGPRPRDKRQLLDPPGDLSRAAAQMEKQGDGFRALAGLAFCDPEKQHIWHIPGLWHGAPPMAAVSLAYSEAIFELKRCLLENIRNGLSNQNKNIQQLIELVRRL
UniProt Q9BZL1: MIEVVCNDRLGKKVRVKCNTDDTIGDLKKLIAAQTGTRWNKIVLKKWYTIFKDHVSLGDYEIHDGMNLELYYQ
UniProt P07919: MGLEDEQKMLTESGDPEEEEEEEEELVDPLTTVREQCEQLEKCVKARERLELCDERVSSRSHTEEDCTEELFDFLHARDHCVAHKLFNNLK
UniProt P10746: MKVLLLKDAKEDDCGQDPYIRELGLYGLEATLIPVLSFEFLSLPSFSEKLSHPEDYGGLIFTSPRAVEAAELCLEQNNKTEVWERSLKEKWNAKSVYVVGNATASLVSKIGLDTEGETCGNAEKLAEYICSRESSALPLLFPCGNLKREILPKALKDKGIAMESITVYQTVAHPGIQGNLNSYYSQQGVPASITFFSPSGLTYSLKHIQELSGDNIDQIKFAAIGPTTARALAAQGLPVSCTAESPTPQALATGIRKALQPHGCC
UniProt Q7Z6J8: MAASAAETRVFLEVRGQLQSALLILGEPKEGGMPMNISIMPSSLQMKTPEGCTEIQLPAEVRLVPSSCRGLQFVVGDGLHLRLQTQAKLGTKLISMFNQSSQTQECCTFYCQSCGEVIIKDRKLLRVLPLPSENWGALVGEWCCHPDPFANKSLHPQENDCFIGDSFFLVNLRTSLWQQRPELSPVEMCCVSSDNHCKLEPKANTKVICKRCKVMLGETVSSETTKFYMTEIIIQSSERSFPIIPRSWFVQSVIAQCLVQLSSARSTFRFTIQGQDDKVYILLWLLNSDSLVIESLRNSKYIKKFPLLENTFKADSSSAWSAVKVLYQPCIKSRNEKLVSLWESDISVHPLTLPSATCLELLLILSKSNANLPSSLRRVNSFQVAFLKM
UniProt Q9UMX0, whole entry, looked up: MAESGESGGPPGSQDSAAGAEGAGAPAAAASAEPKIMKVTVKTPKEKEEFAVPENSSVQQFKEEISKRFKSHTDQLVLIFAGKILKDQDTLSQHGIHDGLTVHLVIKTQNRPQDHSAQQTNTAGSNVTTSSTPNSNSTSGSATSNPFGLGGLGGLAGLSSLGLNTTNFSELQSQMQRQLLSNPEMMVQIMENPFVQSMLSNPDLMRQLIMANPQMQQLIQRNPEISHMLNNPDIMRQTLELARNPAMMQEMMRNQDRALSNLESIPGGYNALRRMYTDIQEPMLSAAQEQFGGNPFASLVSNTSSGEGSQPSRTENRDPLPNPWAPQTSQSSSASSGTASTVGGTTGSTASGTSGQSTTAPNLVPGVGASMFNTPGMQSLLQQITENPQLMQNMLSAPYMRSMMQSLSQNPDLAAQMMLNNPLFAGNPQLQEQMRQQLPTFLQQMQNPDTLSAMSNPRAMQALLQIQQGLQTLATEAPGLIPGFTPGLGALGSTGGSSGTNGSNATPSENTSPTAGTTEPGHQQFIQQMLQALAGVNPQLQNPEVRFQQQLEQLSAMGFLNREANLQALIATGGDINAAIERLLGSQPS
UniProt O14949: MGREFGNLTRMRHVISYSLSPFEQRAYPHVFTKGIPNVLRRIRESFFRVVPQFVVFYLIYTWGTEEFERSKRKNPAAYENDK
UniProt Q92890: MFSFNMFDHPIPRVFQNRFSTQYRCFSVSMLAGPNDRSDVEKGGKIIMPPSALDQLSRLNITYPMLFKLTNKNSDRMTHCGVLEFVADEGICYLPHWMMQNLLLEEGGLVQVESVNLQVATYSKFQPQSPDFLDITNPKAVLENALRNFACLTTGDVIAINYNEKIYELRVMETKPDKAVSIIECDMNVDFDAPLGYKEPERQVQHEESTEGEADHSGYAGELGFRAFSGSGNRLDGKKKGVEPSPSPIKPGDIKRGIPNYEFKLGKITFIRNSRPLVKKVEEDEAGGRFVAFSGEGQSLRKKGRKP
UniProt Q9UDW1: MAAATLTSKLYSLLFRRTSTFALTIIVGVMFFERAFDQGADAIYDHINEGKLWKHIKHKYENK
UniProt Q04323: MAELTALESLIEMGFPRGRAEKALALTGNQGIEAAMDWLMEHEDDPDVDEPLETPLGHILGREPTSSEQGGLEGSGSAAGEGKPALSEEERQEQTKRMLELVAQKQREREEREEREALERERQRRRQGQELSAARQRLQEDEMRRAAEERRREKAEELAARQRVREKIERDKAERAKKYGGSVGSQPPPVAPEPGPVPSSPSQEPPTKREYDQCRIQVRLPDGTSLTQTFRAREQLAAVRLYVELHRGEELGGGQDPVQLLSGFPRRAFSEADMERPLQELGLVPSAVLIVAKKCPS
UniProt P26640: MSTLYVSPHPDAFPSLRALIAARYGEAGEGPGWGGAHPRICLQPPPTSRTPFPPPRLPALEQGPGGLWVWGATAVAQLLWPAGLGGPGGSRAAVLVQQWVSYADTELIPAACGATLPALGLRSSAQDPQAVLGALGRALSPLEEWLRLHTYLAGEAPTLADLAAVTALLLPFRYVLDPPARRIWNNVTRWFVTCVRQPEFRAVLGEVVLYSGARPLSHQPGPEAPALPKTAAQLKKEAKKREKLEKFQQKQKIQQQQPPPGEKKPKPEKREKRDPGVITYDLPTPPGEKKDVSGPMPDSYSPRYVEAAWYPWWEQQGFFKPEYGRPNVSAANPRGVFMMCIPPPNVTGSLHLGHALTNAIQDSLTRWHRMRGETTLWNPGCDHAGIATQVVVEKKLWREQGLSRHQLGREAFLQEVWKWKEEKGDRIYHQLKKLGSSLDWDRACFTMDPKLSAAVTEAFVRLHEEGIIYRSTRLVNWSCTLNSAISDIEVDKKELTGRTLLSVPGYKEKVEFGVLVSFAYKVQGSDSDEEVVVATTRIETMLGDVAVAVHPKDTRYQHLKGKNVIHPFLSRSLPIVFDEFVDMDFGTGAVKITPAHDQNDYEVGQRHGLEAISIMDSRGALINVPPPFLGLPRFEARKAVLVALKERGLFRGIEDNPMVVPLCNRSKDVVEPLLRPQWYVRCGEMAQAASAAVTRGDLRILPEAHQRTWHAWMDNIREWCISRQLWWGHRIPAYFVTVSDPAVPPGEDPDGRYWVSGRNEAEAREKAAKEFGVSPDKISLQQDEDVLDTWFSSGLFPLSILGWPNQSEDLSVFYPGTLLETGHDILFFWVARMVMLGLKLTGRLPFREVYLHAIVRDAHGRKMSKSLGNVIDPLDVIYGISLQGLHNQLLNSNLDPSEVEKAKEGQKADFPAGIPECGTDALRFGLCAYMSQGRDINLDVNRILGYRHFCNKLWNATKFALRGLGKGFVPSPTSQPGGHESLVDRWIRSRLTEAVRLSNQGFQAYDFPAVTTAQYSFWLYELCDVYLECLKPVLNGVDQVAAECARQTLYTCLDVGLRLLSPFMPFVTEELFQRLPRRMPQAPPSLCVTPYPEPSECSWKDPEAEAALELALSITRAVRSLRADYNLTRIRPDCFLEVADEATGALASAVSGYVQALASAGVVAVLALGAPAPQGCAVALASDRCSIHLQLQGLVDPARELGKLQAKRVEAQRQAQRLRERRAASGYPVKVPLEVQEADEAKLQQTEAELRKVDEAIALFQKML
UniProt P14927: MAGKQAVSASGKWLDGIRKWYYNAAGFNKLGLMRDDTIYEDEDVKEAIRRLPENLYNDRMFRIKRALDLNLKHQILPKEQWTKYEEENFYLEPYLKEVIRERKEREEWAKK
UniProt Q96K76: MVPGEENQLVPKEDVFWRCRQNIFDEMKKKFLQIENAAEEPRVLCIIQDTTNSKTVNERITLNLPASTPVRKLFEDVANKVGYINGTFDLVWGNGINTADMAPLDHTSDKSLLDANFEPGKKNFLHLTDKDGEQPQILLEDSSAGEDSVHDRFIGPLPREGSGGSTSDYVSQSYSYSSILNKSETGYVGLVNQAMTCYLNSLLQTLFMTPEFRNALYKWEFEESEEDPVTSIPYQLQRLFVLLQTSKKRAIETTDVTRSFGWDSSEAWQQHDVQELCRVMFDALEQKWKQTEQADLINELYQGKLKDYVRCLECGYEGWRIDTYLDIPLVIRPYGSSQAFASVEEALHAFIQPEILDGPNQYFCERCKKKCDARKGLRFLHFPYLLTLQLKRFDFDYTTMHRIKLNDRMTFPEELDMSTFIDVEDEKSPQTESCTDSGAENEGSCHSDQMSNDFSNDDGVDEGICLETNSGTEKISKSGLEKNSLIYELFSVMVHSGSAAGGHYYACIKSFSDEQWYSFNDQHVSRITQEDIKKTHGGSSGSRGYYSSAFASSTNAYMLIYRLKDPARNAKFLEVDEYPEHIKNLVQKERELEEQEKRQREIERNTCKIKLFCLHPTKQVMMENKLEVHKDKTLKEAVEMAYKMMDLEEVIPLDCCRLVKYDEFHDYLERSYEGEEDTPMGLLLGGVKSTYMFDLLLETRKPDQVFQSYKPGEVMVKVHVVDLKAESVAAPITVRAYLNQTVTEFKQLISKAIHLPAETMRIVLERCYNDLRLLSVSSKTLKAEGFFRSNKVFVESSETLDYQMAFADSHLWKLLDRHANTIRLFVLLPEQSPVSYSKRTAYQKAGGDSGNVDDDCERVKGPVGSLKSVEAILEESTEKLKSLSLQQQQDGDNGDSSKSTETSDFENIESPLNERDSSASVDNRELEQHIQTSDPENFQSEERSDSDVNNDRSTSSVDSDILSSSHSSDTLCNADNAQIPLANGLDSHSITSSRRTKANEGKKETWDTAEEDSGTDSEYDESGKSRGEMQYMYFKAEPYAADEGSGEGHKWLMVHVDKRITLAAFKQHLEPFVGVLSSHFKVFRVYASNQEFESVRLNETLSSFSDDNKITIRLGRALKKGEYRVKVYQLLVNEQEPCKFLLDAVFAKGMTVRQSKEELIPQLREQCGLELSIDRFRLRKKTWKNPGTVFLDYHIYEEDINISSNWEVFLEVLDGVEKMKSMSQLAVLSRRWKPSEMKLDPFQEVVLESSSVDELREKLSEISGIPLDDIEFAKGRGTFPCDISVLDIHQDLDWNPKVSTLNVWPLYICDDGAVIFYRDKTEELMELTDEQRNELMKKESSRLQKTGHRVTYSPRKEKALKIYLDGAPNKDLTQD

Compound in the assay: C1=CC2=C(C=CC(=C2)/C=C\3/C(=O)NC(=NCC4=CC=CS4)S3)N=C1
Put plainly: log2 fold change, soluble protein after heating vs DMSO (PISA); higher = thermal stabilisation; K562 cells, 10 uM, 30 min; active = over 0.2 and 3.5 SD of the protein, either way, in both replicates (recomputed). In a few lines:
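K562 cells (2×10^6 cells/mL) were treated with 10 μM compound for 30 min, and aliquots were heated for 3 min over 48°C-58°C. Pooled aliquots were extracted in PBS with 0.5% NP-40 at 4°C, and the supernatant after 21,000xg for 90 min was measured by TMTpro 16plex LC-MS/MS with channel sums equalised. Reported thermal stability, relative to control samples and from duplicates, is a log2 fold change.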
Take VANGL1 (UniProt Q8TAA9): the log2 fold change was inactive: 0.08.
The value for URGCP (UniProt Q8TCY9) was inactive: 0.076.
Next, VAT1 (UniProt Q99536): inactive: 0.055; UBL7 (UniProt Q96S82): inactive: 0.103.
For USP10 isoform 2 (UniProt Q14694), the log2 fold change was inactive: 0.003.
Next, UBXN7 (UniProt O94888): inactive: 0.028; USP19 isoform 6 (UniProt O94966): inactive: 0.025.
For the target UBL5 (UniProt Q9BZL1), the log2 fold change is inactive: -0.096.
Next, UQCRH (UniProt P07919): inactive: 0.071.
As to UROS (UniProt P10746), the log2 fold change is inactive: -0.075.
Next, UBR5 (UniProt O95071): inactive: -0.023.
On to UBE3D (UniProt Q7Z6J8), for which the log2 fold change is inactive: 0.003.
Next, UFL1 (UniProt O94874): inactive: 0.021; UTP14A (UniProt Q9BVJ6): inactive: -0.075.
Next, UBQLN1 (UniProt Q9UMX0): inactive: -0.004.
Next, UQCRQ (UniProt O14949): inactive: 0.045; UFD1 isoform 1 (UniProt Q92890): inactive: 0.012.
In the case of UNC45A (UniProt Q9H3U1), the log2 fold change was inactive: 0.039.
Next, UQCR10 (UniProt Q9UDW1): inactive: 0.034.
Take UBXN1 (UniProt Q04323): the log2 fold change is inactive: 0.046.
Regarding VARS (UniProt P26640), the log2 fold change was inactive: 0.036.
The value for UQCRB (UniProt P14927) was inactive: -0.006; that for USP47 (UniProt Q96K76) was inactive: 0.039.
